Usually EC50 stands for the midpoint of the concentration-response curve.

Amino acid sequences for entries named in this document (tags omitted). Residues count along the entry.
UniProt P28476, 21-465: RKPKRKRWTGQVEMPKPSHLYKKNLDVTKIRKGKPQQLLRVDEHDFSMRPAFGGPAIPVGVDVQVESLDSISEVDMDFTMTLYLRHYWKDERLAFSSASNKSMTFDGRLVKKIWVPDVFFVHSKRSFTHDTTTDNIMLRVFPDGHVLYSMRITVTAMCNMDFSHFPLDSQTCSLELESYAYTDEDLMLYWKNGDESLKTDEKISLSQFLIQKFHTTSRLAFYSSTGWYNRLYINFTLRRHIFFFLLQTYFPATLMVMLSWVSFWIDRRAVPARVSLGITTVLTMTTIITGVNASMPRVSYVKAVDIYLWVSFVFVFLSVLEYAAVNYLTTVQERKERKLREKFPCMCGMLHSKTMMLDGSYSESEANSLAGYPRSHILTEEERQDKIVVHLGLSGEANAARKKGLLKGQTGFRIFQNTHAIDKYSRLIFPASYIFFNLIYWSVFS

Each structure is given as a SMILES string.

Results on one compound are retold here after PMC13194042, “GABAA receptor agonists modulate intracellular Ca^2+ levels in activated human CD4^+ T cells” (Frontiers in Immunology, 2026).

Assay [1] deals with GABAA receptors in activated human CD4+ T cells (Homo sapiens, UniProt P28476). Description: Calcium imaging: agonist-evoked intracellular Ca2+ response in activated CD4+ T cells. The format is cell-based. The note with it: comparison with ref [13]. The source says: Human blood samples and blood buffy coats were obtained from Uppsala University Hospital (Uppsala Akademiska sjukhuset), the protocol of which was approved by the Regional Research Ethics Committee in Uppsala (Dnr 2013/347). All individuals who donated blood were voluntarily recruited. Peripheral blood mononuclear cells (PBMCs) were isolated from blood samples using density-gradient centrifugation with Ficoll-Paque™ PLUS (Sigma Aldrich, Sweden). Subsequently, CD4^+ T lymphocytes were isolated from the PBMCs by negative selection, utilizing a human CD4^+ T lymphocyte isolation kit (Miltenyi Biotec, Germany) as per the manufacturer’s instructions. The freshly isolated CD4^+ T lymphocytes (1 million cells/mL) were suspended in human plasma-like medium (HPLM) (Gibco, Fisher Scientific, Sweden) containing 10% heat-inactivated dialyzed fetal bovine serum (Gibco, Fisher Scientific, Sweden), 100 μg/mL streptomycin, 100 U/mL penicillin (Gibco, Fisher Scientific, Sweden), and 5 μM β-mercaptoethanol (Gibco, Fisher Scientific, Sweden). […]
Calcium imaging was performed as previously described ([12]). […] The area around the individual cells was marked, and absolute fluorescence intensity values (F) were extracted using ZENBlue software. The relative intensity (F/Fmedian) for each cell was calculated for every recorded image and plotted against time. […]

The test system of assay [2] is GABAA receptor Cl- currents in human CD4+ T cells. The note with it: read-out: EC50 for the GABA-activated Cl- current, ref [12]; cited from earlier work.

Turning to `NCCCC(=O)O` [GABA, γ-Aminobutyric acid], the “shift of EC50 for GABA-evoked Ca2+ signal toward higher affinity vs Xenopus oocytes' EC50 for GABA-activated Cl- currents” value in assay [1] is listed as “approximately 10^6 fold”. In assay [2], the EC50 is 0.04 nM.
